We go through three molecules from PMC3694828.

Chains of the proteins cited; added tags and fusions are not shown.
UniProt Q02447: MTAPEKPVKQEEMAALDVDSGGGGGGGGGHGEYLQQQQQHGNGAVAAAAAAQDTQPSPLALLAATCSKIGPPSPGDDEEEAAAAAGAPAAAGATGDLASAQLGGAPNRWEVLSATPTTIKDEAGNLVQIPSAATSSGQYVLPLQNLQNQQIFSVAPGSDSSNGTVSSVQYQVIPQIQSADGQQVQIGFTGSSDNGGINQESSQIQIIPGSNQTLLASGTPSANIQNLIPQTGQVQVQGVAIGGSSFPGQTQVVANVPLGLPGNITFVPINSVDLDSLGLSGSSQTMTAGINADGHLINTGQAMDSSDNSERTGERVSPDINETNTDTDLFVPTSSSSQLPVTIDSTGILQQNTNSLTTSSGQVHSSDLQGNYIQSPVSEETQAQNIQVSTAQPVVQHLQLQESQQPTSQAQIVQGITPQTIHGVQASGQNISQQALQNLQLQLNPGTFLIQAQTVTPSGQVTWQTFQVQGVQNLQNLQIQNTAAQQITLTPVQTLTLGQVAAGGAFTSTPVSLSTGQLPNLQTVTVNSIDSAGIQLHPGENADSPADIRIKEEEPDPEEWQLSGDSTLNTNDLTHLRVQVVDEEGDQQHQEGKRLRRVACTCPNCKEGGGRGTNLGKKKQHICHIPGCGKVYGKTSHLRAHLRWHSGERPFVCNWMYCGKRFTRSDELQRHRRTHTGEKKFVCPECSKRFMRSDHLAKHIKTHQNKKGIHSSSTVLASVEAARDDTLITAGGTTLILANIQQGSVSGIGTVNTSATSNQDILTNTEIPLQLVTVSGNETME
UniProt P08047: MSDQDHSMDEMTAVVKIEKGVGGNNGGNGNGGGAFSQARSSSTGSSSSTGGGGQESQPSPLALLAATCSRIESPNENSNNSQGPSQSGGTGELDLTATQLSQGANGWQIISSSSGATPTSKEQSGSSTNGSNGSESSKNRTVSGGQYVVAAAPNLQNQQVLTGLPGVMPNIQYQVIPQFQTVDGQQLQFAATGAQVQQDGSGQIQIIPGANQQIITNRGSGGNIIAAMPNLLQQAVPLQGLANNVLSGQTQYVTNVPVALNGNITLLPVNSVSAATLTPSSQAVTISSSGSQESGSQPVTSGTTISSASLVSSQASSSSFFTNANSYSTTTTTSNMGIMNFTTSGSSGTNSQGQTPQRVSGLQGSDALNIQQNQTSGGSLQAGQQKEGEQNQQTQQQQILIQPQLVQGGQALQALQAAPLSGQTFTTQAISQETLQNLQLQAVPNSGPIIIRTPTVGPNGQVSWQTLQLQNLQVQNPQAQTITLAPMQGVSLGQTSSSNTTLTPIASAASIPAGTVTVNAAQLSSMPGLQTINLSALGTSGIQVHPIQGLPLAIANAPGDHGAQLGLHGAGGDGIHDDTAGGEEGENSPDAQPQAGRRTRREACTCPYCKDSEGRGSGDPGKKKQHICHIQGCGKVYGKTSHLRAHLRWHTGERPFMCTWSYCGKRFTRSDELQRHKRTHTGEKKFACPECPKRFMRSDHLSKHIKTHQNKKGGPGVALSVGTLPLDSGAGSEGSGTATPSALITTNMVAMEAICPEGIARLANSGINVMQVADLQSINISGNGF

These are yes or no findings as the source states them, for the method shown. Binding seen in cells or lysates may run through a third protein. Some entries that bind do so weakly or less than the wild type. For part of these data: Tags and fused reporters may be left off the sequences shown.

Assay [1] deals with Sp3 (human (endogenous in SW1353)) (UniProt Q02447). As to the kind of experiment: co-IP; untransfected SW1353 nuclear extract (200 ug, diluted 1 in 5 in high salt lysis buffer), 10 ug antibody to the endogenous bait overnight at 4 C, magnetic protein A beads, immunoblot. In general terms: In western blotting, separated proteins are transferred to a membrane and probed.
For assay [2], the target named is T1, DEAF-1 EGFP fusion protein (UniProt O75398).
T1 sequence: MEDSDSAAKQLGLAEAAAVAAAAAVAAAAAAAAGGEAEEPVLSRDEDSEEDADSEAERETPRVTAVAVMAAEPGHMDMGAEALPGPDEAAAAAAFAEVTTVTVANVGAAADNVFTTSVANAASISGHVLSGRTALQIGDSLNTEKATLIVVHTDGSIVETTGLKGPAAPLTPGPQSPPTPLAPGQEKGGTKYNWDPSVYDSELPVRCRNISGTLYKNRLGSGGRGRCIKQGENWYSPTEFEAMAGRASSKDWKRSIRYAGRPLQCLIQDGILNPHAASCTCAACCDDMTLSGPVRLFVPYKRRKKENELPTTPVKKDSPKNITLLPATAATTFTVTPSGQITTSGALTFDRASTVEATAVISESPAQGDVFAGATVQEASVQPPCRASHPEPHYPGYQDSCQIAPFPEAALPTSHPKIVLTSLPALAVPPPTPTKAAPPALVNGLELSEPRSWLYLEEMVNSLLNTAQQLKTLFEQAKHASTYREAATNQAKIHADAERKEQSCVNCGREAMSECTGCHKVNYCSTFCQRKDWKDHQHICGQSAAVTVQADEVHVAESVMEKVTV
Put plainly: co-IP; SW1353 lysate over expressing DEAF-1 EGFP, immunoprecipitated with an EGFP antibody, magnetic protein A beads, immunoblot of endogenous partners.

Assay [3] addresses Sp1 (human (endogenous in SW1353)) (UniProt P08047). Put plainly: co-IP; untransfected SW1353 nuclear extract (200 ug, diluted 1 in 5 in high salt lysis buffer), 10 ug antibody to the endogenous bait overnight at 4 C, magnetic protein A beads, immunoblot.

Sp1 (from UniProt P08047 1-785): the binding entry in assay [1] and in assay [2] was “binds” each time.

Regarding Sp3 (from UniProt Q02447 1-781), the binding result in assay [3] and in assay [2] was “binds” throughout.

B1: DEAF-1 (protein, UniProt O75398 1-565)
chain: T1 sequence
As for B1, the binding entry in assay [3] and in assay [1] was “binds” throughout.
